Results from article PMC12040169 (PLOS Biology, 2025).
This is one part of the list.

Test system: T1, CTL2-GFP (C. trachomatis L2/434/Bu, GFP-expressing)
T1 construct: L2/434/Bu, GFP-expressing
Set-up: species or system HeLa; Intracellular C. trachomatis growth in HeLa cells, bulk GFP fluorescence relative to DMSO
Conditions: bulk GFP, single well; 28.5 h, 10 µM; inhibitor

| SMILES | % of control remaining [%] |
| --- | --- |
| c1ccc(C2=NN=C(N3CCOCC3)SC2)cc1 [CBK006876G] | 79.9391 |
| CC(C)C(=O)N[C@H]1CC[C@]2(CC1)CNC(=O)c1ccccc1O2 [CBK281675] | 120.362 |
| CCCn1ccnc1CNc1nc2c(s1)c(C)nn2C [CBK307254] | 148.606 |
| Clc1ccc(OCC2CCN(Cc3c[nH]cn3)CC2)cc1 [CBK281543] | 136.697 |
| COc1ccc2c(c1)C1(CC(=O)N(CC(=O)N(C)C)C1=O)C(=O)N2CCCN(C)S(C)(=O)=O (centres unmarked) [CBK075889] | 88.9375 |
| Cc1c(OCc2ccccc2)ccc2c1OC1(CCN(C(=O)c3ccccn3)CC1)CC2=O [CBK156441] | 107.748 |
| COc1ccc(F)cc1-c1ccc(CC2(C(=O)NC3CCCCC3)CCOCC2)cc1 [CBK285538] | 128.399 |
| CCc1nc2cc(NC(=O)CCCn3ccnc3C)ccc2n1CC [CBK281609] | 109.039 |
| Cc1ccc2[nH]c(-c3ccc(NCc4cc5ccc(C)cc5[nH]c4=O)cc3)nc2c1 [CBK286156] | 117.953 |
| CN(C)Cc1ccc(C(=O)N2CCc3[nH]c4ccccc4c3C2)cc1 [CBK281847] | 152.301 |
| O=C(Nc1ccc(I)cc1C(=O)NCCN1CCOCC1)c1ccc(Cl)cc1Cl [CBK266157] | 132.609 |
| O=C(O)c1cc(NC(=O)C2CCCCC2)cc(C(=O)O)c1 [CBK286972] | 116.027 |
| Cc1cc(C)nc(NS(=O)(=O)c2ccc(Nc3ncnc(N)c3[N+](=O)[O-])cc2)n1 [CBK267217] | 87.1316 |
| C[C@@H](c1ccccc1)n1c(=O)[nH]c2ncc(-c3ccc(C(=O)NC4CCCC4)cc3)nc21 [CBK064542] | 77.9248 |
| O=C(NC(=S)Nc1cccc2ncccc12)c1ccc(N2CCOCC2)c([N+](=O)[O-])c1 [CBK267608] | 109.675 |
| CN(C)CCCn1cnc2c1c(=O)[nH]c(=O)n2Cc1ccccc1 [CBK291234] | 122.775 |
| Nc1ncc(-c2cccc(OC(F)(F)F)c2)nc1-c1ccc(CCC(=O)O)cc1 [CBK064071] | 121.513 |
| COc1ccc(N2CCN(c3cc(-c4ccc(OC(F)(F)F)cc4)ncn3)CC2)cc1OC [CBK091032] | 182.275 |
| COc1ccc(-c2nc(NC(=O)c3cccc(S(C)(=O)=O)c3)cnc2-c2ccc(F)cc2)cc1 [CBK037110] | 65.6662 |
| Cc1ccccc1CN(CC(=O)NC1CC1)S(=O)(=O)c1ccc(Cl)cc1 [CBK265757] | 171.559 |
| CC(=O)Nc1ccc(CN2CCCC(c3cc4ncccc4[nH]3)C2)cc1 (centres unmarked) [CBK283402] | 132.645 |
| Cc1cccc(=O)n1CCC(=O)N1CCCCC1CN1CCOCC1 (centres unmarked) [CBK306528] | 87.5161 |
| CCN(CC(=O)NC(C)C)Cc1nc(-c2cccc(C(F)(F)F)c2)no1 [CBK306039] | 146.158 |
| O=C(CNC(=O)c1ccncc1)N/N=C/c1c(O)ccc2ccccc12 [CBK261378] | 74.3552 |
| CC(C)[C@H](NC(=O)C1CC(=O)N(c2ccc(F)cc2)C1)C(=O)N1CCC(C(=O)O)CC1 (some centres unmarked) [CBK286669] | 131.03 |
| CCn1c2ccccc2c2cc(CN3CCN(Cc4cccc(F)c4)CC3)ccc21 [CBK263143] | 100 |

| SMILES | % of control remaining [%] |
| --- | --- |
| Cc1c(CN(C)CC(=O)Nc2ccc(Br)cc2Cl)cnn1C [CBK304214] | 78.3782 |
| CC(=O)Nc1c(Nc2ccccc2)c2ccccc2oc1=O [CBK261756] | 114.154 |
| CCC1CCCCN1C(=O)c1oc2ccccc2c1C (centres unmarked) [CBK078548] | 133.724 |
| C=CCN1C(=O)CC2(C1=O)C(=O)N(CCn1cnc3c1c(=O)n(C)c(=O)n3C)c1ccc(Cl)cc12 (centres unmarked) [CBK075410] | 163.695 |
| COCCn1nnnc1C(c1cc2cc(C)ccc2[nH]c1=O)N1CCN(C(=O)c2ccco2)CC1 (centres unmarked) [CBK111562] | 132.17 |
| CCN(Cc1ccc(C#N)cc1F)C(=O)Nc1cc(C)nn1C [CBK305730] | 95.3609 |
| O=C(O)c1cnc(-c2ccccc2)nc1 [CBK261272] | 89.8047 |
| O=C(NCc1ccccc1)NC(=O)C1CCN(CCCOc2cccc3ccccc23)CC1 [CBK034856] | 97.0168 |
| O=[N+]([O-])c1cccnc1Oc1cccc(Cl)c1Cl [CBK002596] | 112.831 |
| Cn1cccc1C(=O)N1CCC(Cc2ccccc2)CC1 [CBK200182] | 85.7601 |
| c1ccc2c(c1)/C(=N/OCCN1CCCC1)CC21CCCCC1 [CBK013322] | 139.161 |
| COc1ccc(-c2onc(C)c2-c2cnn(-c3ccccc3)c2)c(O)c1 [CBK296095] | 111.84 |
| Cc1ccc(CCC(=O)N2CCNCC2C)c(C)c1 (centres unmarked) [CBK304481] | 152.271 |
| O=C1c2ccccc2-c2onc3c(NCc4ccccc4)cc(Nc4ccccc4)c1c23 [CBK261979] | 95.7136 |
| O=C(NC1Cc2ccccc2C1)c1cnccc1C(F)(F)F [CBK200353] | 119.383 |
| O=C(O)CC(C(=O)O)c1ccc(F)cc1 (centres unmarked) [CBK268531] | 125.071 |
| Cc1ccc(C(=O)NCCC(=O)Nc2ccccn2)cc1NC(=O)c1ccco1 [CBK298328] | 152.743 |
| CCC1CCCCN1C(=O)c1cc(C)oc1C (centres unmarked) [CBK089358] | 51.0191 |
| COc1ccccc1N(CC(O)Cn1nc(C)cc1C)S(=O)(=O)c1ccccc1 (centres unmarked) [CBK264546] | 115.387 |
| O=C(CSc1nnc(-c2ccncc2)s1)Nc1ccc(Cl)cc1 [CBK270069] | 115.112 |
| CN(C)CCN1CCN(c2cncc(-c3cccc(C(=O)O)c3)n2)CC1 [CBK065443] | 186.216 |
| CCc1cc(Br)ccc1S(=O)(=O)NC(CC)COC (centres unmarked) [CBK045265] | 49.3231 |
| Fc1ccc(OCc2ccc(-c3nnn[nH]3)cc2)cc1 [CBK267859] | 99.6788 |
| CS(=O)(=O)Nc1ccc(C(=O)Nc2ccc(S(=O)(=O)N3CCCCCC3)cc2)cc1 [CBK268288] | 78.0512 |
| O=C([C@@H]1C[C@@H]2C=C[C@H]1C2)N1CCC(c2noc3cc(F)ccc23)CC1 [CBK281542] | 136.291 |
| CN(C)Cc1ccc2nc(C(F)(F)F)cc(SCCC(=O)O)c2c1 [CBK149715T] | 96.638 |

| SMILES | % of control remaining [%] |
| --- | --- |
| COc1cc(-c2cn3ccnc3c(N(C)CCN(C)C)n2)cc(OC)c1OC [CBK066196] | 139.905 |
| Cc1csc(C(Cc2ccsc2)NC(=O)C2CCCO2)n1 (centres unmarked) [CBK285122] | 78.7415 |
| CS(=O)(=O)c1ccc(-c2cnc3[nH]c(=O)n(Cc4cccs4)c3n2)cc1 [CBK064383] | 147.407 |
| Cc1ccccc1C1NC(=O)NC2=C1C(=O)N(C)C2 (centres unmarked) [CBK288026] | 124.264 |
| Cc1cc(C2CCCCCN2C(=O)c2cc(C3CC3)on2)on1 (centres unmarked) [CBK285414] | 115.181 |
| CCn1c(C)nnc1CN(CC1CCCO1)C1CCCC1 (centres unmarked) [CBK304181] | 126.978 |
| O=C(Nc1cncc(OC2CCNCC2)n1)c1cnccn1 [CBK036372T] | 123.559 |
| FC(F)(F)c1cccc(-c2nccnc2NCc2ccc3c(c2)OCO3)c1 [CBK037350] | 156.324 |
| Cc1nnc2ccc(N3CCN(Cc4cscn4)CC3)nn12 [CBK304910] | 113.365 |
| O=C(O)c1cc(Cl)c(OCc2cc(-c3ccccc3)no2)c(Cl)c1 [CBK295297] | 151.233 |
| Cn1c(=O)c2[nH]c(-c3ccc(OCC(=O)NCCc4ccccc4)cc3)nc2n(C)c1=O [CBK269092] | 118.322 |
| CC(=O)c1ccc(NC(=O)CSc2nc(O)cc(-c3ccccc3)n2)cc1 [CBK269048] | 128.099 |
| O=C(Nc1cccc(N2CCCC2=O)c1)c1ccccc1Nc1ccccc1 [CBK297729] | 123.568 |
| COCCN1CCn2c(nc3cc(NC(=O)c4cccc([N+](=O)[O-])c4)ccc32)C1 [CBK267965] | 112.414 |
| COc1ccc(C2NC(C(=O)O)CS2)cc1CN1C[C@@H]2C[C@H](C1)c1cccc(=O)n1C2 (some centres unmarked) [CBK020798] | 119.998 |
| CN1CCC(C(=O)NC(=O)Nc2ccccc2F)CC1 [CBK034827] | 144.794 |
| COc1cccc(CN2CCOC3(CCN(C(=O)OCc4ccccc4)CC3)C2)c1 [CBK161098T] | 120.044 |
| CC(C)(C)COC(=O)N1CCC(N2CCOc3ccc(-c4ccc(S(C)(=O)=O)cc4)cc3C2)CC1 [CBK169264] | 111.136 |
| COC(=O)C1(Cc2ccccc2-c2ccncc2)CCNC1 (centres unmarked) [CBK281435] | 121.358 |
| CCCCCCOC(=O)c1ccc2c(c1)C(=O)N(c1cccc(N)c1)C2=O [CBK157034] | 121.875 |
| CCCSc1nnc(-c2c(Cl)c(CC)nn2C)s1 [CBK026135] | 155.774 |
| NS(=O)(=O)c1ccc2c(c1)N(Cc1nc(-c3ccco3)no1)CC2 [CBK304291] | 126.442 |
| Cc1cccc(C)c1NC(=O)CSc1nnc(C(O)c2ccccc2)n1C (centres unmarked) [CBK269742] | 109.892 |
| O=C(CSc1nnc(-c2ccco2)n1-c1ccccc1)NCc1ccc2c(c1)OCO2 [CBK267308] | 143.321 |
| COc1ccc(F)c(CNCCNC(=O)OC(C)(C)C)c1 [CBK056699] | 161.474 |

Six records picked at random from those above, as already listed:

| SMILES | % of control remaining [%] |
| --- | --- |
| COc1cc(-c2cn3ccnc3c(N(C)CCN(C)C)n2)cc(OC)c1OC [CBK066196] | 139.905 |
| CN1CCC(C(=O)NC(=O)Nc2ccccc2F)CC1 [CBK034827] | 144.794 |
| COC(=O)C1(Cc2ccccc2-c2ccncc2)CCNC1 (centres unmarked) [CBK281435] | 121.358 |
| Cc1ccccc1C1NC(=O)NC2=C1C(=O)N(C)C2 (centres unmarked) [CBK288026] | 124.264 |
| CC(=O)c1ccc(NC(=O)CSc2nc(O)cc(-c3ccccc3)n2)cc1 [CBK269048] | 128.099 |
| CCCCCCOC(=O)c1ccc2c(c1)C(=O)N(c1cccc(N)c1)C2=O [CBK157034] | 121.875 |
